The list shows a part of the results.
biological target: OsWRKY34 (Oryza sativa, UniProt Q0JBA9 1-250); experiment: protein-binding microarray (RPBM); PBS, 2% BSA, 51.3 ng/ul salmon testes DNA, 50 uM zinc acetate, 200 nM TF, 25 C, 1 h; high values mean tight binding; settings: protein: recombinant; tags: N-terminal polyhistidine and DsRed monomer fusion (pET32a); label: CyDye5-dUTP incorporated in the synthesized complementary strand; 3' TTTTT single-stranded linker to array surface; dsDNA, one strand shown
In short: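 Binding signal is defined as the fluorescence intensity of each feature in arbitrary units, read on an Axon 4000B scanner. Transcription factors with N-terminal polyhistidine and DsRed fusions came from E. coli BL21-CodonPlus and were purified on Ni–NTA. They were incubated at 200 nM for 1 h at 25 °C on a custom Agilent array that had been made double-stranded with Cy5-dUTP, with 50 µM zinc acetate present, and the array was washed.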

Chains of the proteins cited; added tags and fusions are not shown.
UniProt Q0JBA9, entry or part of it: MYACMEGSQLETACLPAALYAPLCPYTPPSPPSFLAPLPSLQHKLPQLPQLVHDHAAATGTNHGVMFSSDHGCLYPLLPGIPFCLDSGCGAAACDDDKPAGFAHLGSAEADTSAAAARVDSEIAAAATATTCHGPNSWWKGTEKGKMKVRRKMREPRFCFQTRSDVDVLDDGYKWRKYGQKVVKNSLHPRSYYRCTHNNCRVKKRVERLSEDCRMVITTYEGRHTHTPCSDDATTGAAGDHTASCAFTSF

| Sequence | binding signal |
| --- | --- |
| ATCCACCTGTCTGTCTATGATATGAAATGAAGCTTTTTCCCGGAGTCACCTAGTGCAG | 11000 fluorescence intensity (a.u.) |
| GACCTATTATTTCTAGACCATCTATCTGTGCTAATCTGATCGGAGTCACCTAGTGCAG | 9720 fluorescence intensity (a.u.) |
| AAATGATACTTTTCCGCCTATCCTCTGTTGATCTGTTACCCGGAGTCACCTAGTGCAG | 8480 fluorescence intensity (a.u.) |
| CCAACAATGTACTCCATTAGTTTATTATGTTTCTTTATAGCGGAGTCACCTAGTGCAG | 9030 fluorescence intensity (a.u.) |
| TGGTAGTTTGAGCCTTTTGAGGTACATCCTCACACAATCGCGGAGTCACCTAGTGCAG | 8600 fluorescence intensity (a.u.) |
| ACATTAACGTACATAACGCTGACACAATTCTGCATTTCTACGGAGTCACCTAGTGCAG | 8050 fluorescence intensity (a.u.) |
| CCGTATTTGAATATATGACGCCGTTGACTTTTTAACTAATCGGAGTCACCTAGTGCAG | 17900 fluorescence intensity (a.u.) |
| ATGATGGCCCAACAAGTGTCGGAGGGGTTGGAAAAATTCGCGGAGTCACCTAGTGCAG | 8110 fluorescence intensity (a.u.) |
| CTGCACATTTGCTAAACAATTCCACTCACATGTCCCTCGACGGAGTCACCTAGTGCAG | 8440 fluorescence intensity (a.u.) |
| ACTTTACCAAATTTCGGTCTCTTCATTTAGCATTATCAAACGGAGTCACCTAGTGCAG | 9300 fluorescence intensity (a.u.) |
| GCGCCACCACCACCCGCGCCTTCGTCGCCGCCGTCCAACACGGAGTCACCTAGTGCAG | 9230 fluorescence intensity (a.u.) |
| TTTGCTGCTACTCATTATTTTGACCGCTGATACATGATAACGGAGTCACCTAGTGCAG | 8100 fluorescence intensity (a.u.) |
| CTACCCATGCCCGCTTTGCCCGTTTACCCGCGAAATCTAACGGAGTCACCTAGTGCAG | 10100 fluorescence intensity (a.u.) |
| GGTTCTTGGCCGCTCTCGTGTTCGCCGTCTCCGTCTCCGCCGGAGTCACCTAGTGCAG | 8530 fluorescence intensity (a.u.) |
| GAGGTTAGCTCGCCTCTGATTGGGTTGGTTGGGTGGTCGGCGGAGTCACCTAGTGCAG | 10100 fluorescence intensity (a.u.) |
| TAATCGCTTTTCATTCCTCCTTTGACCAGTATTTACCCTTCGGAGTCACCTAGTGCAG | 9840 fluorescence intensity (a.u.) |
| CTGCCACCGATCTTGTCTCTTCTCCGGCCGCCGGGCCGCCCGGAGTCACCTAGTGCAG | 10800 fluorescence intensity (a.u.) |
| ATTACAGCTTGTTCAGTTCTTTGTCTTGAATTCTTGATCACGGAGTCACCTAGTGCAG | 9260 fluorescence intensity (a.u.) |
| ACGTTATACTACAATGTTTTGGAAACTGTTTTCATTCCATCGGAGTCACCTAGTGCAG | 8150 fluorescence intensity (a.u.) |
| CATCTGGCCATCTCTCGAGACTCTCTCCCCTATTTCTTGACGGAGTCACCTAGTGCAG | 8760 fluorescence intensity (a.u.) |
| GCGGGGTCCCTATGTTCAATTGTACAGTATATTATCATATCGGAGTCACCTAGTGCAG | 9630 fluorescence intensity (a.u.) |

| Sequence | binding signal |
| --- | --- |
| TTACATATGGAATCTGTCATTTGTTTTGTTATTAGTCTACCGGAGTCACCTAGTGCAG | 8660 fluorescence intensity (a.u.) |
| AAAATCGGTCAGTAATATTTCCTCTTCGTTGTTGTTATTCCGGAGTCACCTAGTGCAG | 9670 fluorescence intensity (a.u.) |
| CGTACCCAAATCACGGAGATTGTCTGTTCTTTCTTTTTTTCGGAGTCACCTAGTGCAG | 10800 fluorescence intensity (a.u.) |
| TGTCCAACATTTTATCTTTCTCGATTACTCGTACGAACAGCGGAGTCACCTAGTGCAG | 8920 fluorescence intensity (a.u.) |
| TATATATATATATATATATATATATATAACACACACCGTGCGGAGTCACCTAGTGCAG | 15200 fluorescence intensity (a.u.) |
| TTCGCTTTTCATCCCCTTCGCGTCCGTTTCTTCCCTTTCTCGGAGTCACCTAGTGCAG | 11700 fluorescence intensity (a.u.) |
| ATGTGTTCTTTTACCCCTTTTCCAACTTCTACTTTTTATTCGGAGTCACCTAGTGCAG | 8190 fluorescence intensity (a.u.) |
| ACCGGCCATCTCTCAAGCGTTGACTTGATTAATTGCTTCTCGGAGTCACCTAGTGCAG | 15700 fluorescence intensity (a.u.) |
| GCGCCTTCTGGACTCTTCCTGACCCTTTTTTGGCGGGCGACGGAGTCACCTAGTGCAG | 10100 fluorescence intensity (a.u.) |
| CTTCGTTCGGGAGCGCGTTTTGATGCATTCATCCAGTGGTCGGAGTCACCTAGTGCAG | 8170 fluorescence intensity (a.u.) |
| TTCGTGGGCTTTTTTTCTCCCTCTTGATTGCGGCGCGACTCGGAGTCACCTAGTGCAG | 11000 fluorescence intensity (a.u.) |
| ACCTTGCTTGGGAATTAGAGTTGACTGCTAGTGCTGATGTCGGAGTCACCTAGTGCAG | 8560 fluorescence intensity (a.u.) |
| CCAAGCTTGTCGTGCCCGTATGTTCGCGTCCATCGTTGACCGGAGTCACCTAGTGCAG | 19800 fluorescence intensity (a.u.) |
| AATCTGTGTAATTGTTTTTTTTTCTGTCTACACTTAATACCGGAGTCACCTAGTGCAG | 9020 fluorescence intensity (a.u.) |
| TTCGCTGGCAATGGTTCTCTTCTCTGCATCCAGATCCATCCGGAGTCACCTAGTGCAG | 8210 fluorescence intensity (a.u.) |
| TTCAAACAAGATGAATAGTCAACGTTGGATATAAAAACCTCGGAGTCACCTAGTGCAG | 11600 fluorescence intensity (a.u.) |
| GCTTTGTCCTCTCTATCCGCGACGCCTAGTTCGTCAGTTCCGGAGTCACCTAGTGCAG | 9170 fluorescence intensity (a.u.) |
| AGAGAGATGGGGAGAGGCGGGGTGAGAGAGAAGCGCACGGCGGAGTCACCTAGTGCAG | 8820 fluorescence intensity (a.u.) |
| AAAGTTGTTTTACACGTAACGTCAGCGCCCGATTTTTGAACGGAGTCACCTAGTGCAG | 10200 fluorescence intensity (a.u.) |
| CTCTCTTCTCCTCTCCCGCCGCCGCCGCCGCCGCACCCGCCGGAGTCACCTAGTGCAG | 8700 fluorescence intensity (a.u.) |
| CACACACACTCCACTACTCCACTGCACTGCAGTCTCTCTCCGGAGTCACCTAGTGCAG | 10100 fluorescence intensity (a.u.) |

Exported tab-delimited: part of the list above
Sequence	binding signal
ACCTTGCTTGGGAATTAGAGTTGACTGCTAGTGCTGATGTCGGAGTCACCTAGTGCAG	8560 fluorescence intensity (a.u.)
CCAAGCTTGTCGTGCCCGTATGTTCGCGTCCATCGTTGACCGGAGTCACCTAGTGCAG	19800 fluorescence intensity (a.u.)
